Measured values: PubChem BioAssay AID1688 (National Center for Advancing Translational Sciences (NCATS), 2009)
Screen size: about 220,000 compounds; about 2,400 (1.1%) were called active. The inconclusive results got no clear call from the source; some entries with a clear call stand among them for comparison. Calls follow the shape of the dose curve; as a rule, active = well fitted inhibition curve with a large enough effect; inconclusive = small, poorly fitted or top-dose-only effect, or effect the other way; inactive = no such curve, though single readings can be large or run the other way. Potencies beside an inconclusive call are fits to weak or partial responses and may not hold up.
% is scaled to controls: 0 for no effect and ±100 for the full control effect; potency is read from the fitted curve at half-maximal effect.

Assay: qHTS Multiplex Assay to Identify Dual Action Probes in a Cell Model of Huntington: Aggregate Formation (GFP); also: nearly all actives have a fitted effect of over 60% in size
Details: PC12 HttQ103-GFP aggregates, Acumen cytometry, 40 h; activity change, negative = inhibition: at 46.1 µM (top of the series) unless noted
Procedure, shortened: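 PC12/HTTQ103-GFP, ecdysone-inducible; teb 100 nM; cpd qHTS titration; GFP aggregates read on laser cytometer, Ex 488/Em 500-530 nm.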
With `O=C(NCc1ccncc1)Nc1ccc(Cl)cc1Cl` the Potency was inconclusive: 3.55 µM [activator, single point].
With `COc1ccc2cnn(Cc3ccccc3)c(=O)c2c1OC` the Potency was inconclusive: 35.5 µM [inhibitor, single point].
With `Cc1ccc2c(c1)C=CC(C)(C)S2=O` (stereo not drawn) the Potency was “inactive”.
In the case of `COc1cc(/C(C)=N\NC(N)=S)cc(OC)c1OC`, the Potency is reported as inconclusive: 14.1 µM [activator, single point].
In the case of `O=S(=O)(c1ccc(Cl)s1)N1CCN(Cc2ccccc2)CC1`, the Potency is reported as “inactive”.
For `O=C(O)CCCCC1SCC2NC(=O)NC21` (stereo not drawn), the Potency was “inactive”.
For `O=S(=O)(Cc1cc(Oc2ccccc2)nc(-c2ccccc2)n1)c1ccccc1`, the Potency was “inactive”.
In the case of `Nc1ccn(-c2ccc(Cl)cc2)c(=O)c1`, the Potency is reported as inconclusive: 15.8 µM [activator, single point].
With `CCOc1cc(CNc2ccc(OC)cc2)cc(Br)c1OCC(=O)NC(C)(C)C` the Potency was inconclusive: 35.5 µM [inhibitor, single point].
In the case of `O=C(Oc1cccc(Nc2ncnc3ccccc23)c1)c1ccccc1Cl`, the Potency is reported as inconclusive: 12.6 µM [inhibitor, single point].
In the case of `O=C(O)Cn1cc2c(n1)CCCCC2`, the Potency is reported as inconclusive: 35.5 µM [inhibitor, single point].
With `O=C(O)c1cccc(NC(=O)C2C3C=CC(C3)C2C(=O)O)c1` (stereo not drawn) the Potency was “inactive”.
With `Cc1ccc(C(=O)C(c2ccccc2)N2Cc3ccccc3C2=N)cc1` (stereo not drawn) the Potency was active: 15.8 µM.
With `O=C1c2ccccc2NC(c2c(Cl)cccc2Cl)N1Cc1ccccc1` (stereo not drawn) the Potency was inconclusive: 35.5 µM [inhibitor, single point].
With `CCCN=Cc1c(CCC)[nH]n(-c2nc3ccccc3s2)c1=O` the Potency was “inactive”.
For `Cc1nc2ccccc2c2oc(C(=O)NCC3COc4ccccc4O3)cc12` (stereo not drawn), the Potency was inconclusive: 11.2 µM [inhibitor, single point].
With `O=C(c1cc(COc2ccc(F)cc2Cl)on1)N1CCC(OCc2cccnc2)CC1` the Potency was active: 11.2 µM.
For `O=C(c1cc(-c2ccc3c(c2)OCO3)on1)N1CCOCC1`, the Potency was “inactive”.
For `CC1CC(C)CN(c2nc3c(c(=O)n(C)c(=O)n3C)n2CCSc2ncccn2)C1` (stereo not drawn), the Potency was “inactive”.
With `N#C/C(=C/c1cn(-c2ccccc2)nc1-c1cccc(OCc2ccccc2)c1)C(=O)NCCCn1ccnc1` the Potency was inconclusive: 31.6 µM [inhibitor, single point].
With `Cc1ccc(OCc2nc(-c3ccccn3)no2)c(Br)c1` the Potency was inconclusive: 1.26 µM [inhibitor, single point].
With `C=CCn1c(NCCO)nc2c1c(=O)n(C)c(=O)n2C` the Potency was active: 25.1 µM.
In the case of `CC(C)C(=O)N1CCC2(CC1)Oc1ccc(Cl)cc1C(=O)C21CC(c2ccc(Cl)cc2)=NO1` (stereo not drawn), the activity change, negative = inhibition is reported as inactive: -28.7% [at 9.22 µM].
With `COc1ccc(-c2c(C#N)c(C)nc3c2C(=O)c2ccccc2-3)cc1` the Potency was inconclusive: 3.98 µM [inhibitor, single point].
In the case of `CCOc1cc(C(=O)Nc2ccc3c(c2)OCO3)ccc1OCCOc1ccccc1Cl`, the Potency is reported as “inactive”.
In the case of `CC(=O)c1cc(NC(=O)c2cccc(C(F)(F)F)c2)c(=O)oc1C`, the Potency is reported as inconclusive: 7.08 µM [inhibitor, partial curve, poor fit].
For `COc1ccc(S(=O)(=O)NCc2ccccc2)cc1`, the Potency was “inactive”.
For `c1ccc(-c2nnc(-c3ccccc3)nn2)cc1`, the activity change, negative = inhibition was inactive: 21.4% [at 9.22 µM].
With `Clc1c(-c2nnc3n2CCCCC3)sc2ccccc12` the Potency was inconclusive: 2.82 µM [inhibitor, full curve, poor fit].
With `Clc1ccc2[nH]c3c(NCC4CCCO4)ncnc3c2c1` (stereo not drawn) the Potency was inconclusive: 31.6 µM [inhibitor, single point].
With `COc1ccc(-c2nnnn2-c2ccc(F)cc2F)cc1` the Potency was “inactive”.
In the case of `Cc1ccccc1C(=O)Nc1c2c(nc3ccccc13)CCCC2`, the Potency is reported as inconclusive: 14.1 µM [activator, partial curve].
For `Nc1nc(SCn2nnc3ccccc3c2=O)n[nH]1`, the Potency was inconclusive: 0.562 µM [activator, full curve, poor fit].
With `CCOC(=O)c1c(NC(C)=O)sc2c1CCCNC2=O` the Potency was inconclusive: 20 µM [inhibitor, partial curve].
For `CCCn1c(SCC(=O)OCc2ccccc2)nc2c1c(=O)n(C)c(=O)n2C`, the Potency was “inactive”.
With `CC1CCN(C(=O)CSc2nc3c(cnn3-c3ccccc3)c(=O)[nH]2)CC1` the Potency was inconclusive: 35.5 µM [activator, partial curve].
With `CC(Sc1nnnn1-c1ccccc1)C(=O)Nc1ccccc1-c1ccccc1` (stereo not drawn) the Potency was inconclusive: 35.5 µM [inhibitor, single point].
With `Cc1cc2cc(CNC(=S)NC3CCCCC3)ccc2n1C` the Potency was inconclusive: 25.1 µM [inhibitor, single point].
For `CCCc1nnc(NC(=O)Cn2c(=O)oc3cc(Br)ccc32)s1`, the Potency was inconclusive: 35.5 µM [activator, single point].
With `N#CC1(Cc2ccc(Cl)cc2)c2ccccc2C=CN1C(=O)c1ccccc1` (stereo not drawn) the Potency was inconclusive: 17.8 µM [inhibitor, single point].
For `C=CC[n+]1c(-c2ccc(Cl)cc2Cl)csc1Nc1ccc(NC(C)=O)cc1`, the Potency was inconclusive: 11.2 µM [inhibitor, single point].
For `Cc1nnc(N/N=C/c2ccccc2O)n1N`, the Potency was “inactive”.
For `O=C(NCc1cccnc1)/C(=C/c1ccc(-c2ccc(Cl)cc2)o1)S(=O)(=O)c1ccccc1`, the Potency was inconclusive: 35.5 µM [inhibitor, single point].
With `CC(=O)N/C(=C/c1ccccc1)C(=O)NC(Cc1ccccc1)C(=O)O` (stereo not drawn) the Potency was inconclusive: 5.62 µM [activator, single point].
In the case of `Cc1ccc(OC(=O)COc2ccccc2C)c(-n2nc3ccccc3n2)c1`, the Potency is reported as “inactive”.
With `COc1ccc(CNC(=O)c2sc3nc4c(c(C(F)(F)F)c3c2N)CCC4)cc1` the Potency was inconclusive: 14.1 µM [activator, single point].
In the case of `CCOC(=O)C(C)Oc1cccc2c(=O)n(CC(=O)N3CCc4ccccc43)ccc12` (stereo not drawn), the Potency is reported as inconclusive: 3.55 µM [inhibitor, single point].
For `Cc1c(C(Nc2ccccn2)c2ccc(Cl)cc2)c(=O)n(-c2ccccc2)n1C` (stereo not drawn), the Potency was “inactive”.
With `CC(C)C(NC(=O)CSCc1ccc([N+](=O)[O-])cc1)C(C)C` the Potency was inconclusive: 10 µM [activator, partial curve].
In the case of `COc1ccc(C(C[N+](=O)[O-])c2c(-c3ccccc3)cc3ccccn23)c(OC)c1` (stereo not drawn), the Potency is reported as inconclusive: 2.24 µM [activator, partial curve].
In the case of `Cc1ccc(C(c2nnnn2CC2CCCO2)N2CCN(c3cccc(C)c3C)CC2)cc1` (stereo not drawn), the Potency is reported as inconclusive: 28.2 µM [inhibitor, partial curve].
In the case of `C=C(C)Cn1c(C)cc(C)c(S(=O)(=O)c2cccc(C)c2)c1=O`, the activity change, negative = inhibition is reported as inactive: 26% [at 9.22 µM].
For `O=C(c1cccc(F)c1)N1CCN(c2cccc(Cl)c2)CC1`, the Potency was inconclusive: 0.251 µM [inhibitor, full curve].
In the case of `O=C(CNc1ccc2ccccc2c1)N/N=C/C=C/c1cccc([N+](=O)[O-])c1`, the Potency is reported as inconclusive: 5.62 µM [activator, single point].
In the case of `C/C(=N\NC(=O)CCn1nnc2ccccc21)c1ccco1`, the activity change, negative = inhibition is reported as inactive: -13.1% [at 9.22 µM].
With `CCOc1ccc(C(=O)NCC(=O)OCC(=O)Nc2ccccc2OCC)cc1` the Potency was inconclusive: 8.91 µM [activator, partial curve].
With `CCOC(=O)c1c(C)c(C(=O)N2CCN(C(=O)c3ccco3)CC2)c(C)n1C` the Potency was “inactive”.
For `Cc1ccc(S(=O)(=O)N2CCN(c3ccnc4cc(Cl)ccc34)CC2)cc1`, the Potency was active: 15.8 µM.
For `CCOc1ccc(C(=O)NCC(=O)Nc2ccc(N3CCOCC3)cc2)cc1OCC`, the Potency was “inactive”.
With `CC(=O)NN1C(=O)c2ccccc2NC1c1ccc([N+](=O)[O-])o1` (stereo not drawn) the Potency was inconclusive: 3.98 µM [activator, single point].
With `c1ccc(CCc2ccccc2-c2nc(-c3cccnc3)no2)cc1` the Potency was active: 20 µM.
With `CCOC(=O)CNc1nc(Cl)nc(Nc2ccc(Cl)cc2)n1` the Potency was inconclusive: 0.562 µM [activator, full curve, poor fit].
For `CC(C)[C@H](NC(=O)OC(C)(C)C)C(=O)N/N=C/c1cccc2nccnc12`, the Potency was inconclusive: 35.5 µM [inhibitor, single point].
With `CC1(C(=O)NCc2ccccn2)C=CCN1C(=O)c1ccccc1` (stereo not drawn) the Potency was “inactive”.
For `O=C(Nc1cccc([N+](=O)[O-])c1)Nc1cccs1`, the Potency was inconclusive: 25.1 µM [inhibitor, single point].
For `CCOC(=O)c1sc(NC(=O)CNC(=O)Cn2cnc3sc(C)c(C)c3c2=O)nc1C`, the activity change, negative = inhibition was inactive: -7.42% [at 9.22 µM].
With `O=c1c2ccccc2nnn1CSc1nnnn1-c1ccc(O)cc1` the Potency was inconclusive: 10 µM [inhibitor, partial curve].
With `CCn1c(SCC(=O)N2CCCc3ccccc32)nnc1-c1cccs1` the Potency was “inactive”.
For `CC1CCC2(CC1)NC(=O)N(Cc1cccc(C(F)(F)F)c1)C2=O` (stereo not drawn), the Potency was inconclusive: 11.2 µM [inhibitor, single point].
In the case of `OC(CNCCc1ccc(C(F)(F)F)cc1)COc1cccc2ccccc12` (stereo not drawn), the Potency is reported as inconclusive: 25.1 µM [inhibitor, single point].
With `C/C(=N\NC(=S)NCc1ccccc1)c1cccs1` the Potency was inconclusive: 12.6 µM [inhibitor, single point].
With `CCOC(=O)c1c(C)[nH]c(C(=O)COC(=O)/C=C/c2ccc(OCC#N)c(OC)c2)c1C` the Potency was “inactive”.
For `Cc1ccc(-n2c(C)cc(C=C3C(=O)CC(C)(C)CC3=O)c2C)cc1`, the Potency was “inactive”.
